Data reported in publication PMC4876403.
Results are given in words; binding and its absence hold for the method and conditions named. In cells and extracts the contact can be indirect. For some of these results: A result given as binding can be weak or reduced; the word gives no strength. For some of these results: Sequences can lack the tags named with a protein.

What was measured:
[1] = target: T1, HA-14-3-3γ (human) (UniProt P61981); assay: co-IP; FLAG-ANO1 and HA-14-3-3γ co-expressed in HEK293T; IP with anti-FLAG and blot with anti-HA, and the opposite combination; 50 mM Tris-HCl pH 7.4, 150 mM NaCl, 5 mM EDTA, 0.1% Triton X-100; overnight at 4 °C
T1 sequence: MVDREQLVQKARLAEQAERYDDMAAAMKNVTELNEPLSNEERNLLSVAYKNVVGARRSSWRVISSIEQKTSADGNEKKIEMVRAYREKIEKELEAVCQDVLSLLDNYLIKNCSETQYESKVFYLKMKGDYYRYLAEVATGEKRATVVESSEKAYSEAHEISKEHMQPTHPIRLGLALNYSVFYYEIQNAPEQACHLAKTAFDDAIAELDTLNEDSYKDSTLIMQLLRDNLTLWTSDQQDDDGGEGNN

[2] = target: FLAG-ANO1 (human); assay: as above
[3] = target: ANO1-VC (human); assay: split reporter; BiFC with split Venus (VN173, VC155) in co-transfected HEK293T cells; fixed in 4% PFA; confocal microscopy; DsRed-Mem as plasma membrane marker
[4] = target: VC-ANO1 (human); assay: as above

FLAG-ANO1 (human)
binding [1]: binds

B1: HA-14-3-3γ (protein, UniProt P61981 1-247)
chain: MVDREQLVQKARLAEQAERYDDMAAAMKNVTELNEPLSNEERNLLSVAYKNVVGARRSSWRVISSIEQKTSADGNEKKIEMVRAYREKIEKELEAVCQDVLSLLDNYLIKNCSETQYESKVFYLKMKGDYYRYLAEVATGEKRATVVESSEKAYSEAHEISKEHMQPTHPIRLGLALNYSVFYYEIQNAPEQACHLAKTAFDDAIAELDTLNEDSYKDSTLIMQLLRDNLTLWTSDQQDDDGGEGNN
binding [2]: binds

B2: VN-14-3-3γ (protein, UniProt P61981 1-247)
chain: MVDREQLVQKARLAEQAERYDDMAAAMKNVTELNEPLSNEERNLLSVAYKNVVGARRSSWRVISSIEQKTSADGNEKKIEMVRAYREKIEKELEAVCQDVLSLLDNYLIKNCSETQYESKVFYLKMKGDYYRYLAEVATGEKRATVVESSEKAYSEAHEISKEHMQPTHPIRLGLALNYSVFYYEIQNAPEQACHLAKTAFDDAIAELDTLNEDSYKDSTLIMQLLRDNLTLWTSDQQDDDGGEGNN
binding [3]: no binding | binding [4]: binds
